Laboratory results published in PubChem BioAssay AID493014 (National Center for Advancing Translational Sciences (NCATS), 2011).
Some of the results follow. Shown are side measurements of this screen, not its main read-out; they come without a call. The list favours compounds with an active or inconclusive main result. Potencies come from curve fits of mixed quality, noted in brackets.

Assay: qHTS Assay to Find Inhibitors of Chronic Active B-Cell Receptor Signaling
Conditions: ABC-DLBCL IkBa-CBG/CBR reporter, luminescence ratio (green luciferase fused to IkBa over red control in TMD8 lymphoma cells), 4 h
In short: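 Cell line TMD8 (human ABC DLBCL), stably expressing tet-inducible CBG68-IkBa fusion and CBR; IMDM/0.5% FBS; cpd up to 46 uM; dox induction, 4 h, 37C/5% CO2; dual luminescence; green/red ratio; MG132 control.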

[1] = measured here: CBR red luminescence, cell number
[2] = measured here: IkBa-CBG green luminescence

COC(=O)c1cccc(NC(=O)c2ccccc2)c1
AC50 [1]: 8.91 µM [falling, single point]

CCn1c(SCC(=O)Nc2cc(OC)c(OC)c(OC)c2)nnc1-c1cccs1
AC50 [1]: 35.5 µM [falling, single point]

N#Cc1cc2ccc(N3CCOCC3)cc2cc1C#N
AC50 [1]: 6.51 µM [rising, full curve, poor fit]

COCCN(CC(=O)Nc1cccc(C)c1C)C(=O)C1(c2ccc(Cl)cc2)CCC1
AC50 [1]: 8.2 µM [falling, single point]

COc1ccc2ccccc2c1-c1sc(Nc2ccccc2)n[n+]1-c1ccc(F)cc1
AC50 [1]: 35.5 µM [falling, single point]

CCN(CC)CCCC(C)Nc1c2ccc(Cl)cc2nc2ccc(OC)cc12 (stereo not drawn)
AC50 [1]: 11.2 µM [falling, partial curve, poor fit]

COC(=O)c1[nH]c2ccc(C)cc2c1NC(=O)CN1CCCc2ccccc21
AC50 [1]: 29.1 µM [falling, single point]

CCOC(=O)CNC(c1ccccc1)c1cc(Br)ccc1NC(=O)CCN1CCOCC1 (stereo not drawn)
AC50 [1]: 5.17 µM [falling, full curve]

COc1ccc(/C(C)=N/Nc2nccnc2Cl)cc1
AC50 [1]: 29.1 µM [falling, single point]

COc1ccc(C2=CC(=O)N(Nc3ccccc3)C2=O)cc1
AC50 [1]: 11.2 µM [falling, partial curve, poor fit]

CC1CCCCC1NC(=S)Nc1ccc(SC(F)F)cc1 (stereo not drawn)
AC50 [1]: 16.4 µM [falling, single point]

CCN1/C(=C2\C(=O)N(C)C(=S)N2c2ccccc2)C=Cc2ccccc21
AC50 [1]: 31.6 µM [rising, single point]

CCN1C(=O)/C(=C2\SC(=S)N(NC(=O)c3ccccc3O)C2=O)c2ccccc21
AC50 [1]: 15.8 µM [falling, single point]

Clc1ccc2nc(COc3ccccc3)[nH]c2c1
AC50 [1]: 11.2 µM [falling, partial curve]

COc1ccc(Cl)cc1NC(=S)N(Cc1cccnc1)Cc1ccco1
AC50 [1]: 35.5 µM [falling, single point]

Cc1ccc(SCc2cn3ccccc3n2)cc1
AC50 [1]: 25.1 µM [falling, single point]

C/C=C/c1ccc(OCc2cc(=O)n3cc(C)ccc3n2)c(OC)c1
AC50 [1]: 1.26 µM [falling, partial curve, poor fit]

O=C(Nc1cccnc1)c1ccc(Cl)c(Cl)c1
AC50 [2]: 35.5 µM [falling, partial curve, poor fit]

COc1ccc(OCc2cc(C(=O)N3CCC(c4ccccc4)CC3)no2)c(Cl)c1
AC50 [1]: 11.2 µM [falling, partial curve, poor fit]

CC(/C=C/c1ccco1)=N\NC(=O)c1cc(C)[nH]n1
AC50 [1]: 23.1 µM [falling, single point]
AC50 [2]: 25.9 µM [rising, partial curve, poor fit]

CC(C)N(Cc1cc2ccccc2[nH]c1=O)C(=O)c1cccc([N+](=O)[O-])c1
AC50 [1]: 35.5 µM [rising, single point]

O=C(NC(=S)Nc1ccc2c(c1)OCCO2)c1ccccc1
AC50 [1]: 5.01 µM [falling, full curve]

CCCCC[C@H](O)/C=C/[C@H]1CCC(=O)[C@@H]1CCCCCCC(=O)N1CCCCC1CO (stereo partly drawn)
AC50 [2]: 0.501 µM [falling, full curve, poor fit]

CC(C)COc1ccc(C(=O)N2C(=O)c3ccc(N)cc3C2=O)cc1
AC50 [1]: 12.6 µM [falling, partial curve, poor fit]

Cc1cc(C)n(-c2ccc(C(=O)Nc3ccc(C)c(S(=O)(=O)N4CCOCC4)c3)cc2)n1
AC50 [1]: 22.4 µM [falling, single point]

CCOC(=O)c1[nH]c(C)c(C(=O)OCC(=O)N(C)C2CCS(=O)(=O)C2)c1C (stereo not drawn)
AC50 [1]: 14.1 µM [falling, partial curve]

O=C(O)c1ccc(/C=C/c2nc3sc4c(c3c(=O)[nH]2)CCC4)cc1
AC50 [1]: 1.26 µM [falling, full curve]

CC(C)c1ccc(CNc2ccc3c(c2)ncn3C)cc1
AC50 [1]: 0.708 µM [rising, full curve, poor fit]

Cc1ncsc1C(=O)Nc1nc2c(s1)CC(C)CC2 (stereo not drawn)
AC50 [1]: 1.41 µM [falling, full curve]

CCC(C)c1ccccc1NC(=O)c1cc2cccc([N+](=O)[O-])c2[nH]1 (stereo not drawn)
AC50 [1]: 17.8 µM [falling, single point]

O=C(c1cccnc1)N1CCN(c2ccccc2Cl)CC1
AC50 [1]: 35.5 µM [falling, single point]

Cn1c(=O)[nH]c(=O)c2c1nc(Br)n2C/C=N/NC(N)=S
AC50 [1]: 35.5 µM [rising, single point]
AC50 [2]: 35.5 µM [falling, single point]

COc1ccc(-c2cc(C3CC3)nc(N)c2C#N)cc1
AC50 [1]: 35.5 µM [falling, single point]

COc1ccc(/C(=N\Nc2ccccc2C(=O)O)c2ccccc2)cc1
AC50 [1]: 7.94 µM [falling, partial curve]

O=C(CCc1ccc(S(=O)(=O)NC2CCCCC2)cc1)N(Cc1ccccc1)Cc1ccccc1
AC50 [1]: 7.94 µM [falling, partial curve, poor fit]

C=CCn1c(COc2ccccc2F)nnc1SCC(=O)c1c[nH]c2ccccc12
AC50 [1]: 20.6 µM [falling, single point]
AC50 [2]: 25.9 µM [rising, partial curve, poor fit]

COc1ccc(CCNC(=S)NC(=O)c2ccc(Br)cc2)cc1OC
AC50 [1]: 2.24 µM [rising, partial curve, poor fit]

O=C1C2C3C=CC(C4CC34)C2C(=O)N1/N=C/c1ccc(-c2ccc(F)cc2[N+](=O)[O-])o1 (stereo not drawn)
AC50 [1]: 2.59 µM [rising, single point]

Cc1ccc(-c2nc(-c3ccccc3)no2)cc1
AC50 [1]: 0.326 µM [rising, full curve, poor fit]

COc1ccccc1-n1c(SCC(=O)NC2CCCCC2)nc2c(c1=O)SCC2
AC50 [1]: 29.1 µM [falling, single point]

Cc1ccnc(NC(=S)N2CCN(c3cccc(C(F)(F)F)c3)CC2)c1
AC50 [1]: 25.1 µM [rising, single point]

Cc1ccc(NC(=O)N2CCSc3ccccc32)cc1
AC50 [1]: 15.8 µM [rising, single point]

COc1ccccc1N1CCN(/N=C/c2ccc(O)c(O)c2)CC1
AC50 [1]: 35.5 µM [falling, single point]

c1csc(CNc2ncnc3nc[nH]c23)c1
AC50 [1]: 25.9 µM [falling, single point]

COc1ccc2nc(NC(=O)c3ccc(NS(=O)(=O)c4cccs4)cc3)sc2c1
AC50 [1]: 9.2 µM [falling, partial curve]

CC[C@@]12C(=O)N(c3ccc(OC)cc3)C(=O)N1[C@H](c1cccc(C)c1)[C@@H]1C(=O)N(Cc3ccccc3)C(=O)[C@@H]12
AC50 [1]: 5.01 µM [falling, partial curve]

CC(O)CSc1nc2c(c(=O)[nH]c(=O)n2C)n1CC(O)COc1ccccc1 (stereo not drawn)
AC50 [1]: 17.8 µM [rising, single point]

CN(C)CC#Cc1cncc(C(=O)NNC(=O)Nc2ccc(Cl)cc2)c1
AC50 [1]: 22.4 µM [falling, partial curve, poor fit]

COc1ccc(CCNC(=O)C(=O)NCC2CCCN2S(=O)(=O)c2cccs2)cc1OC (stereo not drawn)
AC50 [1]: 5.17 µM [rising, single point]

C/C(=N\NC(=O)c1sccc1C)c1ccncc1
AC50 [1]: 1.26 µM [falling, full curve]

O=C(CCCN1C(=O)c2cccc3cccc(c23)C1=O)NC1CCS(=O)(=O)C1 (stereo not drawn)
AC50 [1]: 12.6 µM [falling, single point]

CCOc1ccc(S(=O)(=O)N2CCN(c3ccccc3)CC2)c2cccnc12
AC50 [1]: 5.01 µM [falling, full curve, poor fit]

CC(C)(C)C(=O)O/N=C(\N)c1c(Cl)cccc1Cl
AC50 [1]: 7.08 µM [rising, partial curve]

O=C(CCC(=O)N1CCOCC1)NCCc1ccc(F)cc1
AC50 [1]: 6.51 µM [rising, single point]

Cc1cccc(NC(=O)C2CCN(S(=O)(=O)c3cccc4nsnc34)CC2)n1
AC50 [1]: 10 µM [falling, single point]

Cn1c(Cn2nnc3ccccc32)nnc1SCC(=O)c1ccc(F)cc1
AC50 [1]: 35.5 µM [falling, single point]

O=C(CSc1ncn[nH]1)Nc1ccccc1C(=O)O
AC50 [1]: 11.2 µM [falling, single point]

C=CCOc1c(Br)cc(/C=N/O)cc1OCC
AC50 [2]: 25.9 µM [falling, partial curve, poor fit]

COc1ccccc1C(=O)NNC(=O)c1nn(Cc2ccccc2)c(=O)c2ccccc12
AC50 [1]: 17.8 µM [rising, partial curve]
AC50 [2]: 22.4 µM [falling, single point]

CSc1nc2nc(C(F)(F)F)cc(-c3ccccc3)n2n1
AC50 [1]: 32.6 µM [falling, single point]

O=C1CN(C(=O)CSc2nnnn2-c2ccc(Cl)cc2)c2ccccc2N1
AC50 [1]: 7.94 µM [rising, partial curve]

O=C(Nc1ccc(F)cc1)c1cccc(N2C(=O)C3C4C=CC(C5CC45)C3C2=O)c1 (stereo not drawn)
AC50 [1]: 11.2 µM [falling, single point]

CCN(CC)S(=O)(=O)c1ccc(C(=O)C(C#N)c2ccccn2)cc1 (stereo not drawn)
AC50 [1]: 2.82 µM [rising, full curve]

Cc1ccc(-n2ncc3c(NCCO)ncnc32)cc1Cl
AC50 [1]: 14.1 µM [falling, single point]
